From PMC8146481
Results are given in words; binding and its absence hold for the method and conditions named. For part of these data: In cells and extracts the contact can be indirect. Some entries that bind do so weakly or less than the wild type.

Chains of the proteins cited; added tags and fusions are not shown.
UniProt F6I457: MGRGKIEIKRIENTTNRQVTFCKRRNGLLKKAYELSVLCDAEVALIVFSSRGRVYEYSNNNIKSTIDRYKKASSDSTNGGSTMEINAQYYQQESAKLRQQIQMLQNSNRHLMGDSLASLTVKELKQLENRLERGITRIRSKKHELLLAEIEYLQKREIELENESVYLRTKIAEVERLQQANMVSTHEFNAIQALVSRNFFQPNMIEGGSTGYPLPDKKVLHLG
UniProt Q8LLR0: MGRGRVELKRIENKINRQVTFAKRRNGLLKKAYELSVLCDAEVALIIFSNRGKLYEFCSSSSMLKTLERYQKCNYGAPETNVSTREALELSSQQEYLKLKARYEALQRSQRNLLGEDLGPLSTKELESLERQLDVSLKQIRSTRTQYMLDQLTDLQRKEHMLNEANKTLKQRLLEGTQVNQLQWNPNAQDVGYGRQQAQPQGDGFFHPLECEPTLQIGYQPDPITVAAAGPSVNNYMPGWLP

Experiments:
[1] = biological target: VvAGL11 (VvMADS5), BiFC fusion with half of YFP (Vitis vinifera cv. 'Xiangfei') (UniProt F6I457); test: split reporter; BiFC: pSPYNE and pSPYCE fusions (halves of YFP) co-expressed in Nicotiana benthamiana leaves by Agrobacterium co-injection; confocal microscopy 48 h after infiltration
[2] = biological target: VvAGL11 (VvMADS5), yeast two-hybrid fusion (Vitis vinifera cv. 'Xiangfei') (UniProt F6I457); test: two-hybrid; full-length CDSs in pGADT7 and pGBKT7, yeast strain AH109; growth on SD/-Trp/-Leu/-Ade/-His solid medium, positive colonies detected by X-α-Gal
[3] = biological target: VvSEP3 (VvMADS4), BiFC fusion with half of YFP (Vitis vinifera cv. 'Xiangfei') (UniProt Q8LLR0); test: split reporter; BiFC: pSPYNE and pSPYCE fusions (halves of YFP) co-expressed in Nicotiana benthamiana leaves by Agrobacterium co-injection; confocal microscopy 48 h after infiltration
[4] = biological target: VvSEP3 (VvMADS4), yeast two-hybrid fusion (Vitis vinifera cv. 'Xiangfei') (UniProt Q8LLR0); test: two-hybrid; full-length CDSs in pGADT7 and pGBKT7, yeast strain AH109; growth on SD/-Trp/-Leu/-Ade/-His solid medium, positive colonies detected by X-α-Gal

binding [1]	binding [2]	binding [3]	binding [4]	Substance
no binding	–	–	–	VvAGL11 (VvMADS5), BiFC fusion with half of YFP (from UniProt F6I457 1-223)
–	no binding	–	–	VvAGL11 (VvMADS5), yeast two-hybrid fusion (from UniProt F6I457 1-223)
binds	–	binds	–	VvSEP3 (VvMADS4), BiFC fusion with half of YFP (from UniProt Q8LLR0 1-242)
–	binds	–	binds	VvSEP3 (VvMADS4), yeast two-hybrid fusion (from UniProt Q8LLR0 1-242)
